Values from PubChem BioAssay AID1159578 (Peter MacCallum Cancer Centre, 2015).
This is one part, drawn at random, of about 18,000 reagents tested. About 1,030 of them (5.7%) count as active. 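Inactive calls also include pools with fewer than 3300 nuclei, whose migration was not assessed.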 Raw values are not corrected between plates. A number with no mark means an inactive call. Further read-outs or replicates are left out here.

Test: 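Genome-wide hunt for genes controlling movement of lymphatic endothelial cells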 (primary screen)
Cell system: human lymphatic endothelial cells
Reagents: siRNA pool against human genes, 40 nM
Duration: 48 h after transfection
Measured: 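Cells stained with dye and imaged after a scratch; covered wound area and nuclei counted, duplicates averaged, migration set against mock wells and turned into a robust z-score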
Direction: migration robust z-score: higher = faster migration into the scratch; nuclei per well: higher = more cells in the well
Rule for the call: 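Pools averaging fewer than 3300 nuclei are never called; remaining pools count as changed when migration robust z lies outside -2 to 2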
Calls: active = migration changed; inactive = no migration change, or too few cells

Target gene	migration robust z-score	migration class with cell-count check	nuclei per well, duplicate mean
DDRGK1 (DDRGK domain containing 1)	0.82	migration z between -2 and 2; enough cells	7415
TMEM205 (transmembrane protein 205)	-0.26	migration z between -2 and 2; enough cells	6045
CLYBL (citramalyl-CoA lyase)	0.26	migration z between -2 and 2; enough cells	6766
KTN1 (kinectin 1)	-0.97	migration z between -2 and 2; enough cells	6158
COMMD8 (COMM domain containing 8)	-0.01	migration z between -2 and 2; enough cells	5758
MAL (mal, T cell differentiation protein (MAL blood group))	-0.03	migration z between -2 and 2; enough cells	6638
MYF6 (myogenic factor 6)	-0.36	migration z between -2 and 2; enough cells	6162
CFAP44 (cilia and flagella associated protein 44)	0.92	migration z between -2 and 2; enough cells	5168
SLC35E4	-0.24	migration z between -2 and 2; enough cells	6951
PADI4 (peptidyl arginine deiminase 4)	0.26	migration z between -2 and 2; enough cells	5390
TTN (titin)	0.55	migration z between -2 and 2; enough cells	5310
EBP (EBP cholestenol delta-isomerase)	0.31	migration z between -2 and 2; enough cells	5905
DAZ1 (deleted in azoospermia 1)	0.1	migration z between -2 and 2; enough cells	4860
ZNF32 (zinc finger protein 32)	-0.26	migration z between -2 and 2; enough cells	6500
CHKA (choline kinase alpha)	0.54	migration z between -2 and 2; enough cells	4713
TRIB1 (tribbles pseudokinase 1)	-1.17	under 3300 nuclei; migration not judged	3016
TBC1D29P (TBC1 domain family member 29, pseudogene)	0.64	migration z between -2 and 2; enough cells	5928
RNF222 (ring finger protein 222)	0.42	migration z between -2 and 2; enough cells	5278
CDX1 (caudal type homeobox 1)	-0.14	migration z between -2 and 2; enough cells	7970
CAPG (capping actin protein, gelsolin like)	-0.32	migration z between -2 and 2; enough cells	5616
CFAP300 (cilia and flagella associated protein 300)	0.39	migration z between -2 and 2; enough cells	6360
GPHB5 (glycoprotein hormone subunit beta 5)	2.62 (active)	migration z above 2; enough cells	6700
CCDC38 (coiled-coil domain containing 38)	-1.57	migration z between -2 and 2; enough cells	4538

3 of these entries, set out differently:
TRIB1 (tribbles pseudokinase 1): migration robust z-score = -1.17; migration class with cell-count check = under 3300 nuclei; migration not judged; nuclei per well, duplicate mean = 3016
TBC1D29P (TBC1 domain family member 29, pseudogene): migration robust z-score = 0.64; migration class with cell-count check = migration z between -2 and 2; enough cells; nuclei per well, duplicate mean = 5928
RNF222 (ring finger protein 222): migration robust z-score = 0.42; migration class with cell-count check = migration z between -2 and 2; enough cells; nuclei per well, duplicate mean = 5278
